“Also recorded” adds a separate entry of the source. For at least one compound, name, drawing or mass did not settle the structure.
How the values were obtained:
[1] = target: T1, MIF (Homo sapiens, UniProt P14174); assay: Spectrophotometric assay of MIF tautomerase activity on L-dopachrome methyl ester; format: biochemical
T1 sequence (P14174 2-115 limits assumed): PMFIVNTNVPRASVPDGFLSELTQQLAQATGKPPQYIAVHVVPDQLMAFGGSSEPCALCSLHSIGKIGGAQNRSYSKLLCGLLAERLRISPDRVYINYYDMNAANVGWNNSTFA

[2] = test system: Balb/C mice; assay: LPS-induced endotoxemia, survival; format: in vivo; conditions: 7 mg/kg i.p., 2 hrs before and 24 after LPS (16 or 19 mg/kg)

Compound: Oc1ccc(C=NNc2ccccc2)cc1 [Compound 5]
- potency relative to methyl hydrazone 4 ([1]; MIF tautomerase inhibition): 16 times

Compound: COc1ccc(NN=Cc2ccc(O)c(F)c2)cc1 [Compound 7]
- protection from fatal LPS exposure (survival) [2]: afforded protection; also recorded: protective agent

Compound: CC(C)(C)OC(=O)NN=Cc1ccc(O)cc1 [Compound 13]
- improvement in inhibition of MIF tautomerase activity relative to 11 ([1]; methyl to t-butyl carbamate): approximately 10 fold

Reference: US8742173B2, “Phenolic hydrazone macrophage migration inhibitory factor inhibitors” (The Feinstein Institute for Medical Research, priority 2006, dated 2014)
